Results from ChEMBL document CHEMBL1150308, “Cytotoxic constituents from Brazilian red propolis and their structure-activity relationship” (Bioorg Med Chem, 2008).

How the values were obtained:
Assay type in all cases: functional, cell-based
[1] = Cytotoxicity against mouse colon 26-L5 cells after 72 hrs by MTT assay
[2] = tested on: A549; assay: Cytotoxicity against human A549 cells after 72 hrs by MTT assay; settings: A549, 72 h
[3] = Cytotoxicity against mouse LLC cells after 72 hrs by MTT assay; settings: Lewis lung carcinoma
[4] = Cytotoxicity against mouse B16-BL6 cells after 72 hrs by MTT assay; settings: B16-BL6, 72 h
[5] = tested on: HeLa; assay: Cytotoxicity against human HeLa cells after 72 hrs by MTT assay
[6] = tested on: HT-1080; assay: Cytotoxicity against human HT1080 cells after 72 hrs by MTT assay; settings: HT-1080, 72 h

O=C1C[C@@H](c2ccccc2)Oc2cc(O)ccc21
IC50 [1]: 51.9 µM
IC50 [2]: > 100 µM
IC50 [3]: > 100 µM
IC50 [4]: 99.9 µM
IC50 [5]: > 100 µM
IC50 [6]: > 100 µM
